The test deals with T1, Gadd45a TAP (mouse) (UniProt P48316).
T1 sequence: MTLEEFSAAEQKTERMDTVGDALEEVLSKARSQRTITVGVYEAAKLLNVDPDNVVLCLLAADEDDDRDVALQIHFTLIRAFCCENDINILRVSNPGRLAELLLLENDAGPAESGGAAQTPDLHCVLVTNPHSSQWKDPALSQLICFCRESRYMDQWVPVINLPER
The test can be described thus: affinity purification with mass spectrometry; tandem affinity purification of Gadd45a TAP from pooled protein extracts of TA muscles of 48 mice, 10 days post-transfection; anti-FLAG magnetic beads, elution with 3x FLAG peptide, then S-protein agarose; 4 °C; 50 mM HEPES pH 7.0, 150 mM NaCl, 5 mM MgCl2, 2 mM EGTA, 0.1-0.5% Triton X-100, 0.5 mM DTT; control: muscles transfected with empty TAP plasmid.

By UniProt entry, the sequences of proteins in these tests, tags left out.
UniProt P52332: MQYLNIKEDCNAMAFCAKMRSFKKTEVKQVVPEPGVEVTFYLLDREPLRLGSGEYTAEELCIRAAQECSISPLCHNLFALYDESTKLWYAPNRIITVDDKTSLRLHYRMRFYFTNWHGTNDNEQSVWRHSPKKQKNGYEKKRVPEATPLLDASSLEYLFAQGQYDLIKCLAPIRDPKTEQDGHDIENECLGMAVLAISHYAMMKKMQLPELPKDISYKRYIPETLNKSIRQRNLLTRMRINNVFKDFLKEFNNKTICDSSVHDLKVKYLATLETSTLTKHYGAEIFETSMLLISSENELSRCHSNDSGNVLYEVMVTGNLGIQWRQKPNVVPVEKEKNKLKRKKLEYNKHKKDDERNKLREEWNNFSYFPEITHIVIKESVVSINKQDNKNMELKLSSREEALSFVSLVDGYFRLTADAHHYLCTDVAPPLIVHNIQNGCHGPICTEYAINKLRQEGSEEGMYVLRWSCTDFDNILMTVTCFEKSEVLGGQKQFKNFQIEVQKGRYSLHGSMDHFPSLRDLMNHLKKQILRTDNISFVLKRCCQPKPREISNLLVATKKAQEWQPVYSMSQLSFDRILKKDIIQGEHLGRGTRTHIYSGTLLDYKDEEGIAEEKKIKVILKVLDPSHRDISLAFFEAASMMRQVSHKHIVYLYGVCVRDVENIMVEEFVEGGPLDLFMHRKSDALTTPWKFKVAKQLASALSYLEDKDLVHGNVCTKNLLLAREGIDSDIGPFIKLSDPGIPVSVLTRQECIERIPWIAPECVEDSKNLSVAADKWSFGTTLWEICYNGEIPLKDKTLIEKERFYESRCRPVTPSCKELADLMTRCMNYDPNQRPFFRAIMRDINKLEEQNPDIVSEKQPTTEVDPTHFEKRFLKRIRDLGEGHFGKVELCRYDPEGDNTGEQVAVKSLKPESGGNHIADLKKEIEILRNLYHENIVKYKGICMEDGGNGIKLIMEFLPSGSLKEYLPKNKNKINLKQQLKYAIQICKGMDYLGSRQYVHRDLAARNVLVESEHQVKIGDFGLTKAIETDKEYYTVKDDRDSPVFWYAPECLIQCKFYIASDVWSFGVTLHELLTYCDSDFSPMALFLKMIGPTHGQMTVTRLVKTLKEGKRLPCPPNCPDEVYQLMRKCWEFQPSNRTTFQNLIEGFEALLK
UniProt Q8C050: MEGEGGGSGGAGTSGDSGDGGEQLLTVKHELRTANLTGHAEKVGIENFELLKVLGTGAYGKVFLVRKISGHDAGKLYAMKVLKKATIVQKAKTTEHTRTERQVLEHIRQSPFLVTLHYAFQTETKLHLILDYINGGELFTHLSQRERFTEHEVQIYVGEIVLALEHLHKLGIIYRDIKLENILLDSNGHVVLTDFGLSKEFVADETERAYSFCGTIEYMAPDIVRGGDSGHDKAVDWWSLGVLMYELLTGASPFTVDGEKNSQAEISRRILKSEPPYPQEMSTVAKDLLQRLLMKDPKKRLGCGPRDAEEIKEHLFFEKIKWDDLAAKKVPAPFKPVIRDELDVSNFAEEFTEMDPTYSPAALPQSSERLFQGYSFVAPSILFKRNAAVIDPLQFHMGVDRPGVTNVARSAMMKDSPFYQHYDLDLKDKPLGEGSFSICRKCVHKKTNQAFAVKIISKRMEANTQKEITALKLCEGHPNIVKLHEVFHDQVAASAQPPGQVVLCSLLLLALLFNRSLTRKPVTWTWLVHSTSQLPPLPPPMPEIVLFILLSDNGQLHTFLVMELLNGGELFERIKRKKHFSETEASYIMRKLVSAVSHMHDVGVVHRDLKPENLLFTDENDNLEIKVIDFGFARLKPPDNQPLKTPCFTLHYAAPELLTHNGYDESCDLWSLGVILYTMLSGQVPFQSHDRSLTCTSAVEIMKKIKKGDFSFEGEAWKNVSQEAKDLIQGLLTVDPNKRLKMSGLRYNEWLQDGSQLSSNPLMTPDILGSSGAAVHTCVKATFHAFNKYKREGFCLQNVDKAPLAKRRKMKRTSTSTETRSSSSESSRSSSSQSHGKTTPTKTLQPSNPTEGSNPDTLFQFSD
UniProt Q9Z2B9: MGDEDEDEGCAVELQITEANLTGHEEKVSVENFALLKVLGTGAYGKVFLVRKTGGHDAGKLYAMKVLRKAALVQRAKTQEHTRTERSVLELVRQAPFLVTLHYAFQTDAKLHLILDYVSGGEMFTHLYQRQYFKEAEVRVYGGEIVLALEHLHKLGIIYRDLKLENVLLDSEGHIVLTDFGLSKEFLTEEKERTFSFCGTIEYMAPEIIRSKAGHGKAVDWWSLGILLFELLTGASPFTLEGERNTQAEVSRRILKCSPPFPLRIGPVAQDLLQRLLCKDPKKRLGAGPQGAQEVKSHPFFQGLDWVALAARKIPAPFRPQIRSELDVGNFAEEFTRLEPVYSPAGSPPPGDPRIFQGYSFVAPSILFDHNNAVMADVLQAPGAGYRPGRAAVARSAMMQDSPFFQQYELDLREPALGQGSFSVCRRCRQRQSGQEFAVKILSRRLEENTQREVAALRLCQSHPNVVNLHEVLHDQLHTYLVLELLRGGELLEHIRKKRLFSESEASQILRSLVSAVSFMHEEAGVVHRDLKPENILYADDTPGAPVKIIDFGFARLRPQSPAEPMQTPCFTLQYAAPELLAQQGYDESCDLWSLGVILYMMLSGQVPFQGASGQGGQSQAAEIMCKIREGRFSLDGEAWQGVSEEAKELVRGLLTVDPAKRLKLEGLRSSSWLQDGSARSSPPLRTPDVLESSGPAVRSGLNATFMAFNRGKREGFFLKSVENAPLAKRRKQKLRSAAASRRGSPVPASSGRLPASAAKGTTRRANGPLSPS
UniProt Q9QZL0: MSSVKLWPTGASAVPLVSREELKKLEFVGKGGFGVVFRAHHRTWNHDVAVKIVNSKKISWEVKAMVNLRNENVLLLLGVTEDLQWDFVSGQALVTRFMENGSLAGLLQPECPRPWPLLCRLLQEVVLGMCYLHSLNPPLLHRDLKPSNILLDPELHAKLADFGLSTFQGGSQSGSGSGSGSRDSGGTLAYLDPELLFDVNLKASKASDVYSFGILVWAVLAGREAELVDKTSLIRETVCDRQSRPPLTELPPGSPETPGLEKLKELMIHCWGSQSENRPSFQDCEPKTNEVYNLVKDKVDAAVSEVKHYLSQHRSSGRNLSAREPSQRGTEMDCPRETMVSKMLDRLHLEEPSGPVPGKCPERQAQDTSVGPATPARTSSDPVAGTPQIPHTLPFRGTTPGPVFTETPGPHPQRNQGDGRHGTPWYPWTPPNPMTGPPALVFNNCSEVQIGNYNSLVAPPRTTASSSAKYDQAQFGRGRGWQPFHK
UniProt P18654: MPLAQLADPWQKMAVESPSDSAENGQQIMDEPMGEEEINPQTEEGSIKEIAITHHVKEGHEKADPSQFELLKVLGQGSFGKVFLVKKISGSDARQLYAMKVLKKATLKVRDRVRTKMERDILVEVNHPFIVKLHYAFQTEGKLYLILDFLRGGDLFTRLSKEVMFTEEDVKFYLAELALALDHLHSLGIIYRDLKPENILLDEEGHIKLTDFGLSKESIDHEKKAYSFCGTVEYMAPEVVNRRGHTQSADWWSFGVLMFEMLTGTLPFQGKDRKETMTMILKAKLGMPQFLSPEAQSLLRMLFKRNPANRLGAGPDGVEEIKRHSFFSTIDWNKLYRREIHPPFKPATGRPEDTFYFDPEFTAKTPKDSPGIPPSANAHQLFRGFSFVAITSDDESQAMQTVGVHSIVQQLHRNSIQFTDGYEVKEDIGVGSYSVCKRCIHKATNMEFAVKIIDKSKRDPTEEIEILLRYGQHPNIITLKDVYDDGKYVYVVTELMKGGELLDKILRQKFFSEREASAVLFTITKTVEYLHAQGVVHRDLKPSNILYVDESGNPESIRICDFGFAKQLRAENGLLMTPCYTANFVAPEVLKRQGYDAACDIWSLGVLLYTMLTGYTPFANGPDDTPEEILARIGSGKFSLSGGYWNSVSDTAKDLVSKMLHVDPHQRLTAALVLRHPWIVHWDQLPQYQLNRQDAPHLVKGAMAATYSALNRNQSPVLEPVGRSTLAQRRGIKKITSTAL

These are yes or no findings as the source states them, for the method shown. In cells and extracts the contact can be indirect. Here binding means that the protein was enriched with, or labelled near, the bait; the list need not be complete.

Take “JAK1 (from UniProt P52332 1-1153) (enzyme)”: the binding entry was “binds”.

“MSK1 (from UniProt Q8C050 1-863) (enzyme)”: the binding entry is recorded as “binds”.

With “MSK2 (from UniProt Q9Z2B9 1-773) (enzyme)”, the binding result was “binds”.

“RIPK3 (from UniProt Q9QZL0 1-486) (enzyme)”: the binding entry is reported as “binds”.

As for “RSK2 (from UniProt P18654 1-740) (enzyme)”, the binding result is “binds”.

“Raf-1 (from UniProt Q99N57 1-648) (enzyme)”: the binding entry is “binds”.

B1: A-Raf (enzyme, UniProt P04627 1-604)
chain: MEPPRGPPVSGAEPSRAVGTVKVYLPNKQRTVVTVREGMSVYDSLDKALKVRGLNQDCCVVYRLIKGRKTVTAWDTAIAPLDGEELIVEVLEDVPLTMHNFVRKTFFSLAFCDFCLKFLFHGFRCQTCGYKFHQHCSSKVPTVCVDMSTNRRQFYHSIQDLSGGSRQQEAPSNLSVNELLTPQGPSPFTQQRDQEHFSFPAPANPPLQRIRSTSTPNVHMVSTTAPMDSSLMQFTAQSFSTDAAGRGGDGAPRGSPSPASVSSGRKSPHSKLPSEQRERKSLADEKKKVKNLGYRDSGYYWEVPPSEVQLLKRIGTGSFGTVFRGRWHGDVAVKVLKVAQPTAEQAQAFKNEMQVLRKTRHVNILLFMGFMTRPGFAIITQWCEGSSLYHHLHVADTRFDMVQLIDVARQTAQGMDYLHAKNIIHRDLKSNNIFLHEGLTVKIGDFGLATVKTRWSGAQPLEQPSGSVLWMAAEVIRMQDPNPYSFQSDVYAYGVVLYELMTGSLPYSHIGSRDQIIFMVGRGYLSPDLSKIFSNCPKAMRRLLTDCLKFQREERPLFPQILATIELLQRSLPKIERSASEPSLHRTQADELPACLLSAARLVP
Take B1: the binding entry is listed as “binds”.

B2: RIO kinase 3 (enzyme, UniProt Q9DBU3 1-519)
chain: MDLVGVSSPEPGPAAAWGPSKCPWATPQNTVSCSLTEVMSEELAKELQLEEEAAAFPEVVVAEGPFISGENIDTSSDLMLAQMLQMEFDREYDAQLRREEKKFNGDSKVSISFENYRKVHPFEDSDSSEDEVDWQDTRDDPYRPAKPIPTPKKGFIGKGKDITTKHDEVVCGRKNTARMENFAPGFQVGDGIGMDLKLSNHVFNALKQHAYSEERRSARLHEKKEHSTAEKAVDPKTRLLMYKMVNSGMLETITGCISTGKESVVFHAYGGSLEDEKEDGKAIPTECAIKVFKTTLNEFKNRDKYIKDDFRFKDRFSKLNPRKIIRMWAEKEMHNLTRMQKAGIPCPTVVLLKKHILVMSFIGHDQVPAPKLKEVKLSNEEMKDAYYQTLHLMQQLYNECTLVHADLSEYNMLWHAGKVWLIDVSQSVEPTHPHGLEFLFRDCRNVSQFFQKGGVTEALNERELFNAVSGLNISADNEADFLAEIEALEKMNEDHIQKNGRKAASFLKDDGSPPVLSAD
Take B2: the binding result is reported as “binds”.

The record behind these values is publication PMC5016147.
